According to PubChem BioAssay AID1671190 (National Center for Advancing Translational Sciences (NCATS), 2021):
Among all 580,000 compounds or so, about 6,100 (1.1%) were called active. This list was built around the results that the source calls inconclusive (neither active nor inactive); the mix of calls is not that of the screen. Calls follow the shape of the dose curve; as a rule, active = well fitted inhibition curve with a large enough effect; inconclusive = small, poorly fitted or top-dose-only effect, or another doubt; inactive = no such curve, though single readings can be large or run the other way. Potencies of inconclusive entries are doubtful fits and often do not repeat.

Sequences of proteins named here, by UniProt entry; tags and fusion partners are left off. A change or cut given only in a name is not applied to a line headed by its entry.
UniProt P18054: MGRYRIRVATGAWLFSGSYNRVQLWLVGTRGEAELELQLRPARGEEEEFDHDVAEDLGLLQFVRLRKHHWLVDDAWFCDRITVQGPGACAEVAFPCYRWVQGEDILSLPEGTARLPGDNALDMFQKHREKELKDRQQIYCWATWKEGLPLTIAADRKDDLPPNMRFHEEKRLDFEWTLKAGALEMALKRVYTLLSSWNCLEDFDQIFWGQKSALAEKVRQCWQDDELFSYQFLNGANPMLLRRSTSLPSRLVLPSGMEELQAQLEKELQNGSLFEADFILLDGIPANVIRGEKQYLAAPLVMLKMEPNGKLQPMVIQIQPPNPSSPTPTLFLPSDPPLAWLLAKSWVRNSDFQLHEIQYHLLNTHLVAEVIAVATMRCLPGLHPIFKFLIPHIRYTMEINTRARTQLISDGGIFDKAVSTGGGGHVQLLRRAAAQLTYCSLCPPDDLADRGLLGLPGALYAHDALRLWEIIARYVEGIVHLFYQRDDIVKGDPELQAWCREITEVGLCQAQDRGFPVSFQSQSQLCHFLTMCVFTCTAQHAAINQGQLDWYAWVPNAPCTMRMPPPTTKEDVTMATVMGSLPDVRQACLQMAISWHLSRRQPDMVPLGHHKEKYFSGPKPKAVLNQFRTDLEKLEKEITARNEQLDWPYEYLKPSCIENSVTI

The compounds below were run against Polyunsaturated fatty acid lipoxygenase ALOX12 (Homo sapiens) (UniProt P18054) (assay: Primary qHTS assay for inhibitors of human arachidonate 12S-lipoxygenase (ALOX12): Round 2). Details: purified 12hLO, xylenol orange hydroperoxide absorbance; activity change, negative = inhibition: at 108 µM (top of the series) unless noted.
Outline: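 Hydroperoxide product was detected by ferrous iron/xylenol orange as the 573 to 405 nm absorbance ratio. Arachidonic acid at 40 uM (final) was turned over for 30 min at room temperature by 150 nM human 12hLO, pH 7.0 Hepes buffer, after 15 min compound preincubation.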
% is scaled to controls: 0 for no effect and ±100 for the full control effect; potency is read from the fitted curve at half-maximal effect.

Row | SMILES | Potency | activity change, negative = inhibition
1 | CCCSc1nnc(-c2cc(Br)ccc2NC(C)=O)c(=O)[nH]1 | inconclusive: 44.7 µM [inhibitor, partial curve, poor fit] | 
2 | Cc1nc2cc(NS(=O)(=O)c3cccc(Cl)c3)ccc2o1 | inconclusive: 79.4 µM [inhibitor, single point] | 
3 | Cc1csc2ncc(C(=O)NCc3ccco3)c(=O)n12 |  | inactive: -6.86%
4 | CCc1ccc(NS(=O)(=O)c2ccc3[nH]cc(C(=O)N4CCc5ccccc54)c(=O)c3c2)cc1 | inconclusive: 28.2 µM [inhibitor, partial curve, poor fit] | 
5 | CCC(=O)N1Cc2ccccc2CC2(CCN(Cc3ccccn3)CC2)C1 |  | inactive: 55.1%
6 | COc1cc(OC)c2c(c1)OC(=O)CC2c1ccc2c(c1)OCO2 (stereo not drawn) | inconclusive: 158 µM [inhibitor, partial curve, poor fit] | 
7 | CCn1ncc2c(C(=O)Nc3cc(OC)cc(OC)c3)cc(-c3cccs3)nc21 |  | inactive: -2.8%
8 | CCOc1cc(C2CC(=O)NC(SCC)=C2C#N)ccc1O (stereo not drawn) |  | inactive: 2.49%
9 | CSc1ccccc1C(=O)NCC1Cc2cccc(-c3ncccc3C)c2O1 (stereo not drawn) | inconclusive: 79.4 µM [inhibitor, single point] | 
10 | C(=N\Nc1ccc2ccccc2n1)/c1ccc2c(c1)OCCO2 | inconclusive: 89.1 µM [inhibitor, partial curve, poor fit] | 
11 | Cc1ccc2nc(N3CCN(C(=O)c4cccs4)CC3)c(C#N)cc2c1 | inconclusive: 15.8 µM [inhibitor, partial curve, poor fit] | 
12 | CCn1nc(C(=O)Nc2cc(Cl)ccc2-n2cncn2)c2ccccc2c1=O | inconclusive: 50.1 µM [inhibitor, partial curve, poor fit] | 
13 | Cc1[nH][nH]c(=O)c1C(c1ccc(-c2ccccc2C(=O)O)o1)c1c(C)[nH][nH]c1=O | inconclusive: 56.2 µM [inhibitor, partial curve, poor fit] | 
14 | Cc1ccc(NNC(=O)c2c(F)cccc2Cl)cc1Cl | inconclusive: 112 µM [inhibitor, single point] | 
15 | CN(CC(=O)Nc1ccccc1Cl)C(=O)c1ccc(Cl)c(S(=O)(=O)N2CCCCCC2)c1 |  | inactive: -15.2%
16 | COC(=O)c1ccc(NC(=O)Cn2ccn3nc(-c4ccc(OC)cc4)cc3c2=O)cc1 | inconclusive: 126 µM [inhibitor, partial curve, poor fit] | 
17 | CC(OC(=O)C1=NN(C)C(=O)CC1)C(=O)c1c[nH]c2ccccc12 (stereo not drawn) |  | inactive: -4%
18 | O=C(O)c1ccccc1NC(=O)c1cc(-c2ccccc2)nc2ccccc12 | inconclusive: 35.5 µM [inhibitor, partial curve, poor fit] | 
19 | CCC(=O)Nc1ccccc1C(=O)OC/C(=N\O)c1ccc(OC)cc1 | inconclusive: 141 µM [inhibitor, single point] | 
20 | COc1ccccc1CN(Cc1ccccc1OC)[C@H]1C[C@@H](Cc2cc(CN3CCOCC3)on2)C1(C)C |  | inactive: -15.2%
21 | CC(C)(CNC(=O)CSc1nnnn1-c1ccccc1)N1CCOCC1 |  | inactive: -28%
22 | COC(CNC(=O)c1cccc2c1C(=O)N(Cc1cccnc1)C2)OC |  | inactive: 6.33%

Rewritten in markdown: part of the list above

| Row | SMILES | Potency | activity change, negative = inhibition |
| --- | --- | --- | --- |
| 18 | O=C(O)c1ccccc1NC(=O)c1cc(-c2ccccc2)nc2ccccc12 | inconclusive: 35.5 µM [inhibitor, partial curve, poor fit] |  |
| 19 | CCC(=O)Nc1ccccc1C(=O)OC/C(=N\O)c1ccc(OC)cc1 | inconclusive: 141 µM [inhibitor, single point] |  |

Later entries.

Row | SMILES | Potency | activity change, negative = inhibition
23 | CN1CCCN(S(=O)(=O)c2ccc(C(F)(F)F)cc2)c2ccccc21 | inconclusive: 20 µM [inhibitor, full curve] | 
24 | Cc1ccc(C(=O)C2=C(O)C(=O)N(c3ncccn3)C2c2ccccc2F)o1 (stereo not drawn) | inconclusive: 50.1 µM [inhibitor, partial curve, poor fit] | 
25 | CC(C)OC(=O)C1=C(N)OC2=C(C(=O)CC(C)(C)C2)C1c1ccc(Cl)cc1 (stereo not drawn) | inconclusive: 89.1 µM [inhibitor, partial curve, poor fit] | 
26 | Cc1ccc(CCCOC(=O)CN2CCCC2)cc1 |  | inconclusive: -36.2% [inhibitor]
27 | CNS(=O)(=O)c1cccc(C(=O)OCC(=O)Nc2ccc(Cl)cn2)c1 | inconclusive: 44.7 µM [inhibitor, single point] | 
28 | Cc1cc(C)c(NS(=O)(=O)c2cccc3cccnc23)c(C)c1 |  | inactive: 3.46%
29 | C=CCC1Cc2ccccc2C(CC=C)N1 (stereo not drawn) |  | inactive: -29.7%
30 | O=C(CS(=O)(=O)c1ccccc1)NCc1ccco1 |  | inactive: 0%
31 | Cc1cccc(NC(=S)/N=C(\N)Nc2nc(C)c3ccc(C)cc3n2)c1 | inconclusive: 15.8 µM [inhibitor, single point] | 
32 | Cc1cc(C)cc(NC(=S)NCc2ccc(F)cc2)c1 | inconclusive: 50.1 µM [inhibitor, partial curve, poor fit] | 
33 | CCOC(=O)c1cccc(C2=CC(=O)C[C@H](c3ccc(OC)c(OC)c3)C2)c1 | inconclusive: 100 µM [inhibitor, single point] | 
34 | CCn1nc(C(=O)OCC(=O)Nc2ccc(N3CCOCC3)cc2)c2ccccc2c1=O | inconclusive: 28.2 µM [inhibitor, single point] | 
35 | O=C1/C(=C/c2cccs2)SC(=S)N1C1CCS(=O)(=O)C1 (stereo not drawn) | inconclusive: 35.5 µM [inhibitor, single point] | 
36 | Cc1ccc(C)c(NC(=O)N2CCCC(Cn3cnc4cccnc43)C2)c1 (stereo not drawn) |  | inactive: 19.2%
37 | Cc1ccc(C)c(NNC(N)=S)c1 |  | inactive: -28.8%
38 | CN(C)CCN(C(=O)CCc1ccccc1)c1nc2c(F)cc(F)cc2s1 | inconclusive: 50.1 µM [inhibitor, partial curve, poor fit] | 
39 | CC/C(=N\NC(=S)NC(C)C)c1ccc(OC(F)F)cc1 | inconclusive: 15.8 µM [inhibitor, full curve, poor fit] | 
40 | Fc1ccc(CNC(=S)Nc2cccc(F)c2)cc1 | inconclusive: 50.1 µM [inhibitor, partial curve, poor fit] | 
41 | COc1ccccc1[C@@H]1C(c2ccccc2)=NN(c2ccc(Br)cc2)[C@H]1C(=O)N1CCOC1=O | inconclusive: 79.4 µM [inhibitor, single point] | 
42 | COC(=O)C1=C(C)N(Cc2ccccc2C(F)(F)F)C(=NCc2cccc(C(F)(F)F)c2)NC1CCc1ccccc1 (stereo not drawn) | inconclusive: 50.1 µM [inhibitor, partial curve, poor fit] | 
43 | CN(C)C(=O)CNC(=O)c1cc2occc2n1Cc1ccccc1 | inconclusive: 56.2 µM [inhibitor, partial curve, poor fit] | 
